Assay results from publication PMC13534476, “The Arabidopsis SPFH protein HIR2 modulates receptor signaling and plasma membrane organization” (The EMBO Journal, 2026).
These are yes or no findings as the source states them, for the method shown. In cells and extracts the contact can be indirect. Here binding means that the protein was enriched with, or labelled near, the bait; the list need not be complete.

The chains behind the UniProt entries cited, without tags or fusion partners. Where a name states a change or a piece, a line headed by the entry shows the natural chain unless it says otherwise.
UniProt Q9SRH6: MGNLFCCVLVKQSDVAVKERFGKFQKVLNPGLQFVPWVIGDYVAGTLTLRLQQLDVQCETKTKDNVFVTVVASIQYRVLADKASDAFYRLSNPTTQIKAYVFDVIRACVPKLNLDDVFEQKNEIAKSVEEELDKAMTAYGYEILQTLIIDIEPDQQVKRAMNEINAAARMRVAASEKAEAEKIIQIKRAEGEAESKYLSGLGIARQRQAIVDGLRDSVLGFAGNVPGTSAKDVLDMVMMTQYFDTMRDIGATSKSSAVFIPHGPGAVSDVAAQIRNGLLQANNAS

Molecular target: T1, BIR2 (endogenous) (Arabidopsis thaliana (endogenous in Arabidopsis plants)) (UniProt Q9LSI9)
T1 sequence: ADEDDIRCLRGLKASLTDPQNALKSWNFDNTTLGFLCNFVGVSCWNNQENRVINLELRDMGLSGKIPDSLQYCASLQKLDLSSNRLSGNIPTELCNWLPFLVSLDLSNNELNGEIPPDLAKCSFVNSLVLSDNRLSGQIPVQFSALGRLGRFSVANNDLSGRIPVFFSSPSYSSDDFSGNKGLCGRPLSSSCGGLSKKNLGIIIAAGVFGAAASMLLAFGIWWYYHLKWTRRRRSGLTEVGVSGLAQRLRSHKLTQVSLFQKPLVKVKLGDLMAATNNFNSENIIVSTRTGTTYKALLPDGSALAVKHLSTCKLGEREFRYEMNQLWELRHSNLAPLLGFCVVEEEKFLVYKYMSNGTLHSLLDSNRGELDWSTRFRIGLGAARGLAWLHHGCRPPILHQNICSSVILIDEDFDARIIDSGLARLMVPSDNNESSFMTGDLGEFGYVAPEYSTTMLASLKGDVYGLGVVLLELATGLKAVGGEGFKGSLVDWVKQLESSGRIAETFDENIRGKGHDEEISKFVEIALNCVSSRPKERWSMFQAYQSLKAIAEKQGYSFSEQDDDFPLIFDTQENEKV
Test: affinity purification with mass spectrometry; Co-IP of BIR2 (endogenous; wild type against BIR2 knockdown/knockout plants) or BIR3 from 2 g Arabidopsis leaf material, SDS-PAGE, in-gel trypsin digest, LC-MS/MS

binding: binds
Substance: HIR2 (endogenous, found by mass spectrometry) (from UniProt Q9SRH6)
